This is one part of the list.
target: T1, OsSMF1 (Oryza sativa, UniProt Q6ZLB0 1-436); test: protein-binding microarray (RPBM); PBS, 2% BSA, 51.3 ng/ul salmon testes DNA, 50 uM zinc acetate, 200 nM TF, 25 C, 1 h; high values mean tight binding; conditions: protein: recombinant; tags: N-terminal polyhistidine and DsRed monomer fusion (pET32a); chain copies: 2; label: CyDye5-dUTP incorporated in the synthesized complementary strand; 3' TTTTT single-stranded linker to array surface; dsDNA, one strand shown
T1 sequence: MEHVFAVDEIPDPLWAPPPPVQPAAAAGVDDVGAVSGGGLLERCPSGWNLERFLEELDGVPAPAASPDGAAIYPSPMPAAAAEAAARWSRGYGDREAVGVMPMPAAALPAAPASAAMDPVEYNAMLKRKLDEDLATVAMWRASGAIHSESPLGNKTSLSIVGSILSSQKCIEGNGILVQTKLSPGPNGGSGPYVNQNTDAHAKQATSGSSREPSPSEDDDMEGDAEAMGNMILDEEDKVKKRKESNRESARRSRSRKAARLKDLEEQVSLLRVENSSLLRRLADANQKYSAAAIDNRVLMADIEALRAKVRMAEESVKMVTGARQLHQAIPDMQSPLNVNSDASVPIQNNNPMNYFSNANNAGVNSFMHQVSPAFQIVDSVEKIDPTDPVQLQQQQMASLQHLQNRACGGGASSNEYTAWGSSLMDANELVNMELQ
How it was run: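 Per-feature fluorescence intensity (arbitrary units), read on an Axon 4000B scanner, is the binding signal. Transcription factors carrying an N-terminal polyhistidine tag and DsRed fusion were expressed in E. coli BL21-CodonPlus and purified on Ni–NTA. A custom Agilent array, made double-stranded by primer extension with Cy5-dUTP and blocked with 2% BSA, was incubated with 200 nM protein in PBS, 2% BSA, salmon testes DNA and 50 µM zinc acetate at 25 °C for 1 h and then washed.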

Sequence | binding signal
GTCAACTACACATCATCCCGCTGACGTCAACAGCAGACGACGGAGTCACCTAGTGCAG | 8720 fluorescence intensity (a.u.)
GTAGTTTGAGAAGCAGTACGTGACTGTGAGAGAGCGACTACGGAGTCACCTAGTGCAG | 3340 fluorescence intensity (a.u.)
ATGGTGTTATGTGAAGTGTGATGATGCAAGAATGAAGTTACGGAGTCACCTAGTGCAG | 4230 fluorescence intensity (a.u.)
ATGTCCGGGCTTCTCACTGCCATGTGGGCCCCACTTGTCTCGGAGTCACCTAGTGCAG | 3180 fluorescence intensity (a.u.)
TATCCCTCCCGCCGCCCGCGACGTCACCTCCTGGAACTCCCGGAGTCACCTAGTGCAG | 4460 fluorescence intensity (a.u.)
TGTAACCCGACCACGCGTCAGTCCGGTGACATCCCGCTGCCGGAGTCACCTAGTGCAG | 6010 fluorescence intensity (a.u.)
CCTTCGCCTCGGCGTGGAGGAGAGTGAGGACGGCCCACGCCGGAGTCACCTAGTGCAG | 23600 fluorescence intensity (a.u.)
TAGAAGGGAGATTAAAATAAAATTTCTTGTACTGTGTGAGCGGAGTCACCTAGTGCAG | 5590 fluorescence intensity (a.u.)
AATCATACATGCTTTATCTTAGGTGTCTATCTTGCTGTGGCGGAGTCACCTAGTGCAG | 4140 fluorescence intensity (a.u.)
CCGTTGCGTCGTCATAGACAAAAGTCGGTTTTGCTTTTGGCGGAGTCACCTAGTGCAG | 4070 fluorescence intensity (a.u.)
TCTCCCCAACCCCACTCACTCGCCGCGTCGGCGACCACCACGGAGTCACCTAGTGCAG | 4630 fluorescence intensity (a.u.)
CGTTTGTTTTGCAGGTGGCGATCGCGCCGGATCCGGTGCTCGGAGTCACCTAGTGCAG | 33700 fluorescence intensity (a.u.)
CCTACTGATCCCAAGCGTCACAATGGGGCAATGGGCCCTCCGGAGTCACCTAGTGCAG | 3920 fluorescence intensity (a.u.)
TACTATAGTGAAAATATAGTTAAAGTGCCTGTGGATATGACGGAGTCACCTAGTGCAG | 3380 fluorescence intensity (a.u.)
ATCTGGAACTAAAGATGGTAATGCCACGTGGAAGGGCTTCCGGAGTCACCTAGTGCAG | 22800 fluorescence intensity (a.u.)
TTCACATAATATTTGACCATTCATCTTATTCAAAAGTTTACGGAGTCACCTAGTGCAG | 3800 fluorescence intensity (a.u.)
GTAGCTACAATATTGGGGCGTACGATTAGGCCCATGTCATCGGAGTCACCTAGTGCAG | 4140 fluorescence intensity (a.u.)
CAGGGGTACTATGTTGCAAAAGGGTCAGGACGTGGTAAAACGGAGTCACCTAGTGCAG | 3830 fluorescence intensity (a.u.)
GCTCCAATCCTGTCCCTTCCTCATAGGGATTAGATGAACACGGAGTCACCTAGTGCAG | 19500 fluorescence intensity (a.u.)
AGCTATTATATATGTCCACTCACTCGATTCCTTCGACCAACGGAGTCACCTAGTGCAG | 3440 fluorescence intensity (a.u.)
ATCTGAAAACCGATTCAGACACGGATGACGTACCAAAATCCGGAGTCACCTAGTGCAG | 4360 fluorescence intensity (a.u.)
CAGGTTTATCTCCACGTGGCAAGTGGCAACACGGCCCATCCGGAGTCACCTAGTGCAG | 13000 fluorescence intensity (a.u.)
CTGCAGCAAACGACCAGCCATGTCACAGGTTGTGAAGGTCCGGAGTCACCTAGTGCAG | 4600 fluorescence intensity (a.u.)
TAAATCGATCTCTTCGTCAGCAATAATGCGGACGCCATCACGGAGTCACCTAGTGCAG | 3890 fluorescence intensity (a.u.)
CTCCCAGCAGCTGGTAGTGCATGTACGTTAGCACATTCCACGGAGTCACCTAGTGCAG | 3830 fluorescence intensity (a.u.)
TGGCATCTCTATCACTAACACTCTTCTTCTTCCCTTGGCGCGGAGTCACCTAGTGCAG | 10300 fluorescence intensity (a.u.)
CGCCGGCCGGGATGGTGCCGCACGCCCACGTCGGGCCCGGCGGAGTCACCTAGTGCAG | 3750 fluorescence intensity (a.u.)

Sequence | binding signal
ACATGGACTGTGGTGTGGTACACACACGGTATGTCAGAGCCGGAGTCACCTAGTGCAG | 3220 fluorescence intensity (a.u.)
ACCATTCCCAACAAGTCAGCAGCCACCACTGCAGCGCAGACGGAGTCACCTAGTGCAG | 4060 fluorescence intensity (a.u.)
GGTGCCCTAATAAGTACGGTGGTTGAACATTACACAATTCCGGAGTCACCTAGTGCAG | 3770 fluorescence intensity (a.u.)
CGGTCCACCCGTACTACGTGACGTATATGCCGAGCCGATTCGGAGTCACCTAGTGCAG | 8300 fluorescence intensity (a.u.)
AAGCCAGCGAGCCTCCTCCACCACCGTCACCACCATGGGGCGGAGTCACCTAGTGCAG | 3300 fluorescence intensity (a.u.)
TACTATTTTACACTTCATCTGATCATAAATATTTCACATACGGAGTCACCTAGTGCAG | 29800 fluorescence intensity (a.u.)
AGAGAATTTTGGGCTTGGTAGTCATGGCCCAGCAAATTTTCGGAGTCACCTAGTGCAG | 3140 fluorescence intensity (a.u.)
GGCGCGCGCGTCGAGGACGTGGTTCACGAAGGCGACGAACCGGAGTCACCTAGTGCAG | 3300 fluorescence intensity (a.u.)
ATCAACAACTGTATTTAAAATGGGACGAATAGAGTAAATGCGGAGTCACCTAGTGCAG | 20200 fluorescence intensity (a.u.)
CGGACTGACCGACTGCTTTAGGTGACACGGCATGTAGCTTCGGAGTCACCTAGTGCAG | 5520 fluorescence intensity (a.u.)
ACTAATCATCGCCATGTCATAGCCACGTTAGTTGCCGCCTCGGAGTCACCTAGTGCAG | 17400 fluorescence intensity (a.u.)
GCGCTTGCGCCTGACCGCCGCGTGACGACATGTTGTCACCCGGAGTCACCTAGTGCAG | 6800 fluorescence intensity (a.u.)
TCTGTTAGTGTCATACTGTCATCGACATATAATATTCCCTCGGAGTCACCTAGTGCAG | 42500 fluorescence intensity (a.u.)
TACAGGCGGATTACGTAATTTGTTTTGTTATTAGACTACGCGGAGTCACCTAGTGCAG | 3260 fluorescence intensity (a.u.)
ACCAGTGTTGAGCTTCGCTCCTCATCCAGGTCACGCTCATCGGAGTCACCTAGTGCAG | 4820 fluorescence intensity (a.u.)
AAACGAATATTATCTTCTCGTAGCCACGTGCATTCTGTAGCGGAGTCACCTAGTGCAG | 5270 fluorescence intensity (a.u.)
CGCGGCCCAACACCTGCCACGCCGAACTCAACCACCCGAACGGAGTCACCTAGTGCAG | 3920 fluorescence intensity (a.u.)
CTCGCATCCGGTGTATCACCACTCCACCATACATCCTCCCCGGAGTCACCTAGTGCAG | 32300 fluorescence intensity (a.u.)
TCATGTTCATTCTGATCGGTGCATGCGTGTTCAGTTGGATCGGAGTCACCTAGTGCAG | 4930 fluorescence intensity (a.u.)
TTCCAACTTCCTCCGCGTCACAACTCACAACAGAAGCGGACGGAGTCACCTAGTGCAG | 3850 fluorescence intensity (a.u.)
ACAAGCATTATAACAAACATCTCACTTCTTCTGCATGCCACGGAGTCACCTAGTGCAG | 3260 fluorescence intensity (a.u.)
CTTAACTTCCTCCCTCTCCCTTTATAAAACCCTAACCGCCCGGAGTCACCTAGTGCAG | 19500 fluorescence intensity (a.u.)
CTTTGATTTGATGCTTGTTTCGTGGCAGCTTACCACTGGACGGAGTCACCTAGTGCAG | 3420 fluorescence intensity (a.u.)
ATCGCAAACCTCAAGGATTCTTCTGGACTGAATTCAGAAGCGGAGTCACCTAGTGCAG | 3560 fluorescence intensity (a.u.)
CGACGAGCGGTAGCTCCGGCGTGCAAGCAAGCGGCGCTCACGGAGTCACCTAGTGCAG | 20800 fluorescence intensity (a.u.)
TTTCCAAAAGTATTTTAAAATCTGAAACTTTTAGCCACGTCGGAGTCACCTAGTGCAG | 3890 fluorescence intensity (a.u.)
GTGCTGCCAGTTCATGCCACCCGGCCAAGTGCAAGCATCGCGGAGTCACCTAGTGCAG | 3680 fluorescence intensity (a.u.)

Three entries from above, with each value named.
ATCAACAACTGTATTTAAAATGGGACGAATAGAGTAAATGCGGAGTCACCTAGTGCAG
  binding signal: 20200 fluorescence intensity (a.u.)
TTTCCAAAAGTATTTTAAAATCTGAAACTTTTAGCCACGTCGGAGTCACCTAGTGCAG
  binding signal: 3890 fluorescence intensity (a.u.)
GTGCTGCCAGTTCATGCCACCCGGCCAAGTGCAAGCATCGCGGAGTCACCTAGTGCAG
  binding signal: 3680 fluorescence intensity (a.u.)

Source: PMC7819943, “Rice protein-binding microarrays: a tool to detect cis-acting elements near promoter regions in rice”
